Results: patent publication US20030162221A1
No constants are given. Whether binding was seen depends on the method and setting. In cells and extracts the contact can be indirect. Some binding calls cover weakened binding; strength is not graded here. Where a sequence is shown, tags or fusion partners need not be part of it.

Key:
[1] = molecular target: T1, Rad4 (Saccharomyces cerevisiae) (UniProt P14736); test: anti-FLAG co-IP, LC-MS/MS
T1 sequence (looked up): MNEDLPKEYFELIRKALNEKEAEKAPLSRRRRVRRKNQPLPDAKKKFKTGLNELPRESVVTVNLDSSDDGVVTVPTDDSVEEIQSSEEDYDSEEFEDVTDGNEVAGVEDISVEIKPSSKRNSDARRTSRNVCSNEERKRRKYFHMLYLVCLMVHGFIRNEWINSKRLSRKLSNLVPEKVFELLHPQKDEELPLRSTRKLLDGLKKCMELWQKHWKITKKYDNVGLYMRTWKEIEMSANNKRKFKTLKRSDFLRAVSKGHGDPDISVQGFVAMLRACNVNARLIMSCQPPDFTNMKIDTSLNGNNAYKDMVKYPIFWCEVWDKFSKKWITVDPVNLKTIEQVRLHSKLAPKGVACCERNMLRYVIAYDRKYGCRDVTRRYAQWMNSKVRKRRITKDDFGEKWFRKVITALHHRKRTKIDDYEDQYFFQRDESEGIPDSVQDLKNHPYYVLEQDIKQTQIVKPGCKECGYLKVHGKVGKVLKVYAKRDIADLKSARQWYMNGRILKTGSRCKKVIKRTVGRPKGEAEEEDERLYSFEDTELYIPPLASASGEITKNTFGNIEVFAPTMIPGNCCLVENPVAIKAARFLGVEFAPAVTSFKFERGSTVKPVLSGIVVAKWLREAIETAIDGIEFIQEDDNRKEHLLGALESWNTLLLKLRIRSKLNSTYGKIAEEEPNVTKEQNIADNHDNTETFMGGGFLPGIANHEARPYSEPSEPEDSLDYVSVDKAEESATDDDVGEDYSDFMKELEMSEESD

[2] = molecular target: T2, Rad1 (Saccharomyces cerevisiae) (UniProt P06777); test: anti-FLAG co-IP, LC-MS/MS
T2 sequence (looked up): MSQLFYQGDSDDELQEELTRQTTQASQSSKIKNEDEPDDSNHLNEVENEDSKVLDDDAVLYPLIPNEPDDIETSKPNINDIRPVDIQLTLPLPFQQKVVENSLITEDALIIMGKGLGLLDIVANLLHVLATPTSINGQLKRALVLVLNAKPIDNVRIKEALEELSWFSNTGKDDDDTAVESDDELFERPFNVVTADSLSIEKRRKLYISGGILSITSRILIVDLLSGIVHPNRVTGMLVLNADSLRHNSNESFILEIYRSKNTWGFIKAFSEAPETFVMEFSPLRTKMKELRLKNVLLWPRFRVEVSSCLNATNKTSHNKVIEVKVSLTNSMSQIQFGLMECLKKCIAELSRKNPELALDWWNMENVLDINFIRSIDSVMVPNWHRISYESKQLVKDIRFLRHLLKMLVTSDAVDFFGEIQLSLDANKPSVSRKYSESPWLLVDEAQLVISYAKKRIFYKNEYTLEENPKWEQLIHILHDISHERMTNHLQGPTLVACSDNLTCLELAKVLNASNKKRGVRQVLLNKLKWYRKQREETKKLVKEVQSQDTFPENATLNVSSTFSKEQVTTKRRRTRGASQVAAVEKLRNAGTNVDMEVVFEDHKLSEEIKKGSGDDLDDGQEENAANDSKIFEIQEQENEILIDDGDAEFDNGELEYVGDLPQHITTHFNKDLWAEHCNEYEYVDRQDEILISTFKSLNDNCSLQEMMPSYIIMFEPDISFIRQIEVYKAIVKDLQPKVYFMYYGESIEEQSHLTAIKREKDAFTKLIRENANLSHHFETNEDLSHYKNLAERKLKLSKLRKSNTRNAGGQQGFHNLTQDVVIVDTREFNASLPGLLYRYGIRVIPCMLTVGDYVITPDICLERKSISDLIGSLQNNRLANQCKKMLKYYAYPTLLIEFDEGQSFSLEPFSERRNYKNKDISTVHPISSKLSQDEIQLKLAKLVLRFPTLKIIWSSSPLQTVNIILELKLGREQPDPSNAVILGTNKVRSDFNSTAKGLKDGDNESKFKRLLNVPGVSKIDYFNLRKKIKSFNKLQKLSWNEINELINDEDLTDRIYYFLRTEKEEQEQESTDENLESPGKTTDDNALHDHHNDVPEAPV

[3] = molecular target: T2, Rad1 (Saccharomyces cerevisiae); test: anti-FLAG co-IP, LC-MS/MS; pair by Table 2
[4] = molecular target: T1, Rad4 (Saccharomyces cerevisiae); test: anti-FLAG co-IP, LC-MS/MS; bait Rad14 by Table 2
[5] = molecular target: T3, Rad7 (Saccharomyces cerevisiae) (UniProt P06779); test: anti-FLAG co-IP, LC-MS/MS
T3 sequence (looked up): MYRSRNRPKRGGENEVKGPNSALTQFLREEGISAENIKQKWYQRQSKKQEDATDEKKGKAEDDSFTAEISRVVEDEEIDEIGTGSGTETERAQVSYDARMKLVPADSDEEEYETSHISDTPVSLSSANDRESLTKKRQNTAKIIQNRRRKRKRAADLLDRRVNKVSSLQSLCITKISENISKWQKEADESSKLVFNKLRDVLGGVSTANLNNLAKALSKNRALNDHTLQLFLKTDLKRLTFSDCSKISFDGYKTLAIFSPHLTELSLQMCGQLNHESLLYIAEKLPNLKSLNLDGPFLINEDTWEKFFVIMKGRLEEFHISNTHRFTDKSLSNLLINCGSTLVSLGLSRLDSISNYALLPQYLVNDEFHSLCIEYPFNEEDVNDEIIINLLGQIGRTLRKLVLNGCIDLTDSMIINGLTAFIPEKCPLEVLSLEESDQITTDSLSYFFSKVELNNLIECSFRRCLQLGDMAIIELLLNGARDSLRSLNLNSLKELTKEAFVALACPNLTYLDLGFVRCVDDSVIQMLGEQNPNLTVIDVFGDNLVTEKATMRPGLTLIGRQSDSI

[6] = molecular target: T3, Rad7 (Saccharomyces cerevisiae); test: anti-FLAG co-IP, LC-MS/MS; pair by Table 2

Measured: binding

B1: Rad14 (protein, Saccharomyces cerevisiae, UniProt P28519 1-371, looked up)
chain: MTPEQKAKLEANRKLAIERLRKRGILSSDQLNRIESRNEPLKTRPLAVTSGSNRDDNAAAAVHVPNHNGQPSALANTNTNTTSLYGSGVVDGSKRDASVLDKRPTDRIRPSIRKQDYIEYDFATMQNLNGGYINPKDKLPNSDFTDDQEFESEFGSKKQKTLQDWKKEQLERKMLYENAPPPEHISKAPKCIECHINIEMDPVLHDVFKLQVCKQCSKEHPEKYALLTKTECKEDYFLTDPELNDEDLFHRLEKPNPHSGTFARMQLFVRCEVEAFAFKKWGGEEGLDEEWQRREEGKAHRREKKYEKKIKEMRLKTRAQEYTNRLREKKHGKAHIHHFSDPVDGGIDEDGYQIQRRRCTDCGLETEEIDI
binds: [1] | [2] | [3] | [4]

B2: Rad16 (protein, Saccharomyces cerevisiae, UniProt P31244 1-790, looked up)
chain: MQEGGFIRRRRTRSTKKSVNYNELSDDDTAVKNSKTLQLKGNSENVNDSQDEEYRDDATLVKSPDDDDKDFIIDLTGSDKERTATDENTHAIKNDNDEIIEIKEERDVSDDDEPLTKKRKTTARKKKKKTSTKKKSPKVTPYERNTLRLYEHHPELRNVFTDLKNAPPYVPQRSKQPDGMTIKLLPFQLEGLHWLISQEESIYAGGVLADEMGMGKTIQTIALLMNDLTKSPSLVVAPTVALMQWKNEIEQHTKGQLKIYIYHGASRTTDIKDLQGYDVVLTTYAVLESVFRKQNYGFRRKNGLFKQPSVLHNIDFYRVILDEAHNIKDRQSNTARAVNNLKTQKRWCLSGTPLQNRIGEMYSLIRFLNINPFTKYFCTKCDCASKDWKFTDRMHCDHCSHVIMQHTNFFNHFMLKNIQKFGVEGPGLESFNNIQTLLKNIMLRRTKVERADDLGLPPRIVTVRRDFFNEEEKDLYRSLYTDSKRKYNSFVEEGVVLNNYANIFTLITRMRQLADHPDLVLKRLNNFPGDDIGVVICQLCNDEAEEPIESKCHHKFCRLCIKEYVESFMENNNKLTCPVCHIGLSIDLSQPALEVDLDSFKKQSIVSRLNMSGKWQSSTKIEALVEELYKLRSNKRTIKSIVFSQFTSMLDLVEWRLKRAGFQTVKLQGSMSPTQRDETIKYFMNNIQCEVFLVSLKAGGVALNLCEASQVFILDPWWNPSVEWQSGDRVHRIGQYRPVKITRFCIEDSIEARIIELQEKKANMIHATINQDEAAISRLTPADLQFLFNN
binds: [5] | [6]
